PubChem BioAssay AID1259254 – NCATS | 2017

Purpose: 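Finding genes that stop cells copying their DNA twice in one cycle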 (primary screen)
Cells: human HCT116 colorectal cancer cells
Reagent: single siRNA against human genes
Time to read-out: 3 days
Detection: 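Imaged Hoechst DNA stain sorts each cell into a cycle phase by DNA amount; per plate, G2 fraction set to 0% for non-targeting and 100% for GMNN siRNA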
Direction: G2 robust z-score and G2 cells, % of GMNN control: higher = more G2 cells, more excess DNA replication; raw share of cells in G2: higher = larger share of cells with G2 DNA content
Active means: 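Active siRNAs have a G2 robust z of 5 or more median absolute deviations over the median, which in these data means about 38% or higher of GMNN control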
In all, the deposit lists about 59,000 reagents; shown is an unselected part. About 1,550 of them (2.6%) count as active. 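G2 share is only a proxy for re-replication; each gene was hit by three separate siRNAs, and active genes were retested.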 Raw values are not corrected between plates. The numbers tell different reagents against one gene apart. Not given: the amount of reagent.

gene symbol	siRNA no.	G2 robust z-score	G2 cells, % of GMNN control	raw share of cells in G2 (%)	activity call
LHPP	1	0.858	9.01	7.72	inactive
LHPP	2	-1.2	-5.46	2.66	inactive
LHPP	3	-0.338	0.59	3.67	inactive
HIRA (histone cell cycle regulator)	1	-0.0658	2.5	6.66	inactive
HIRA (histone cell cycle regulator)	2	4.61	35.4	16.1	inactive
HIRA (histone cell cycle regulator)	3	1.06	10.4	8.13	inactive
ACY3 (aminoacylase 3)	1	6.94	51.8	27.5	active
ACY3 (aminoacylase 3)	2	2.27	19	10.7	inactive
ACY3 (aminoacylase 3)	3	-0.986	-3.97	2.78	inactive
PRDX3 (peroxiredoxin 3)	1	8.52	62.9	24.2	active
PRDX3 (peroxiredoxin 3)	2	1.02	10.2	10.1	inactive
PRDX3 (peroxiredoxin 3)	3	-1.42	-7.04	3.7	inactive
FBXO24 (F-box protein 24)	1	0.657	7.59	7.27	inactive
FBXO24 (F-box protein 24)	2	-0.993	-4.02	2.2	inactive
FBXO24 (F-box protein 24)	3	-0.449	-0.189	3.23	inactive
WDR18 (WD repeat domain 18)	1	3.05	24.5	14	inactive
WDR18 (WD repeat domain 18)	2	-0.363	0.416	4.66	inactive
WDR18 (WD repeat domain 18)	3	3.12	24.9	10.9	inactive
DCP1A (decapping mRNA 1A)	1	1.64	14.5	7.9	inactive
DCP1A (decapping mRNA 1A)	2	-0.436	-0.104	5.86	inactive
DCP1A (decapping mRNA 1A)	3	-0.591	-1.19	3.26	inactive
LINC02871 (long independently transcribed non-coding RNA 2871)	1	-0.52	-0.688	3.34	inactive
LINC02871 (long independently transcribed non-coding RNA 2871)	2	-0.337	0.598	3.77	inactive
LINC02871 (long independently transcribed non-coding RNA 2871)	3	0.399	5.77	4.91	inactive
HDAC4 (histone deacetylase 4)	1	0.433	6.02	7.19	inactive
HDAC4 (histone deacetylase 4)	2	-1.15	-5.11	3.27	inactive
HDAC4 (histone deacetylase 4)	3	-0.824	-2.83	2.23	inactive
HDAC4 (histone deacetylase 4)	4	1.18	11.3	7.86	inactive
HDAC4 (histone deacetylase 4)	5	-0.479	-0.405	3.39	inactive
HDAC4 (histone deacetylase 4)	6	-0.0024	2.95	3.91	inactive
